In patent publication US20230047208A1, “RNA Splicing Modulation” (The General Hospital Corporation, priority 2020, published 2023):
This continues a long series; more values of the same kind are listed elsewhere.

Tested on: wildtype (WT) human fibroblast cell lines
Assay: Transcriptome-wide splicing by RNA sequencing (RNASeq), exon triplet PSI change;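 on Effect: six WT fibroblast lines treated seven days versus DMSO vehicle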;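 on T-PSI: T-PSI is average treated PSI after seven days of treatment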
Type: cell-based
Set-up: key to Effect: Exclusion; Inclusion; Unchanged
Description: FIG. 2A provides a representation of an exon triplet. Exon U is upstream of Exon X, which is upstream of Exon D. R1, R2 and R3 represent RNA sequencing (RNASeq) reads spanning the regions between two adjacent exons. UI1, I1X, XI2 and I2D are four regions flanking the four splice sites of the exon-triplet. Each flanking region consists of 25 exonic base pairs and 75 intronic base pairs.
FIG. 2B provides a volcano plot showing the ψ (PSI: Percent Spliced-In) changes in splicing after treatment with Compound (I). Each dot represents one of the 161,097 expressed exon triplets in human fibroblasts. The x axis represents the ψ changes after treatment and the y axis represents the False Discovery Rate (FDR) (log 10 transformed). […] The horizontal dashed line indicates an FDR of 0.1. The dots on the right side of the right vertical dashed line and above the horizontal dashed line represent the exon-triplets with an increase for Exon X inclusion (Δψ≥0.1 and FDR<0.1) while the dots on left side of the left vertical dashed line and above the horizontal dashed line represent an increase for Exon X exclusion (Δψ≤−0.1 and FDR<0.1). Black dots in-between the two vertical dashed lines represent exon-triplets unchanged from the treatment.
In some aspects, analysis is performed on data derived from the assay to measure the magnitude of splicing to determine the amount of exons spliced into an mRNA transcript that is produced in the presence of Compound (I) relative to the amount in the absence of Compound (I) or presence of a negative control. In a preferred aspect, the method utilized is calculation of change in Percent Spliced In (ΔPSI). […] The ΔPSI value is derived from the formula: […]
The values for “a” and “b” represent the number of reads supporting the probability for potential inclusion or exclusion of an exon in an RNA transcript. The “a” value is derived from the number of reads within an exon triplet covering, in 5′ to 3′ order: the last few bases (>1 nucleotide) of an upstream exon operably linked to the first few bases (>1 nucleotide) of a middle exon. The “b” value is derived from the number of reads within an exon triplet covering, in 5′ to 3′ order: the last few bases (>1 nucleotide) of the middle exon operably linked to the first few bases (>1 nucleotide) of a downstream exon. The number of reads will indicate whether the splice junction of a middle exon has been identified as potentially having a CNN Motif(s) by the CNN Model described herein, wherein the inclusion or exclusion of the middle exon may be modulated in the presence of Compound (I) to produce one or more mature RNA isoforms from the gene transcript. The value for “c” represents the number of reads supporting the exclusion of the middle exon.
The effect on splicing modulation and corresponding splice differences toward exon inclusion or exclusion was determined by counting the RNASeq reads covering two splice junctions of exon triplets (three consecutive exons: Exon U, Exon X, Exon D) and the corresponding intervening introns, then comparing the change in Percent Spliced In (ΔPSI or Δψ) of the middle exon (Exon X) after treatment (as shown in FIG. 2A)^52,53. 934 exon triplets were identified showing differential middle exon inclusion or exclusion in response to Compound (I) treatment. Of these, 254 were exon inclusion events (Δψ≥0.1 and FDR<0.1) and 680 were exon exclusion events (Δψ≤−0.1 and FDR<0.1) (as shown in FIG. 2B). […] The splicing results were evaluated by RT-PCR in independent replicate experiments, confirming all the calculated Δψ values. […]

[1] = EIF4A2 Exon 186502751-186502890
[2] = EIF4E2 Exon 233422594-233422728
[3] = EPB41L1 Exon 34807683-34807766, Intron1 34802363-34807682
[4] = EPB41L1 Exon 34807683-34807766, Intron1 34806885-34807682
[5] = EPB41L2 Exon 131191468-131191521
[6] = ERMARD Exon 170153383-170153468
[7] = ERMARD Exon 170153413-170153468
[8] = FAM13B Exon 137281917-137282000
[9] = FAM13B Exon 137354644-137354835
[10] = FAM45A Exon 120864276-120864534

SMILES: Clc1nc(NCc2ccncc2)c2cc[nH]c2n1 [Compound (I), 2-chloro-N-(pyridin-4-ylmethyl)-7H-pyrrolo[2,3-d]pyrimidin-4-amine]
- T-PSI (EHBP1 Exon 63215066-63215173): 0.133
- ΔPSI (EHBP1 Exon 63215066-63215173): −0.103
- Effect (EHBP1L1 Exon 65351063-65351236): Unc
- T-PSI (EHBP1L1 Exon 65351063-65351236): 0.841
- ΔPSI (EHBP1L1 Exon 65351063-65351236): −0.004
- Effect (EHMT2 Exon 31856746-31856847): Exc
- T-PSI (EHMT2 Exon 31856746-31856847): 0.761
- ΔPSI (EHMT2 Exon 31856746-31856847): −0.133
- Effect [1]: Exc
- T-PSI [1]: 0.622
- ΔPSI [1]: −0.138
- Effect [2]: Exc
- T-PSI [2]: 0.858
- ΔPSI [2]: −0.111
- Effect (EIF4G2 Exon 10823208-10823321): Unc
- T-PSI (EIF4G2 Exon 10823208-10823321): 0.889
- ΔPSI (EIF4G2 Exon 10823208-10823321): 0.009
- Effect (EIF4H Exon 73604577-73604636): Inc
- T-PSI (EIF4H Exon 73604577-73604636): 0.194
- ΔPSI (EIF4H Exon 73604577-73604636): 0.113
- Effect (ELK1 Exon 47509320-47509425): Exc
- T-PSI (ELK1 Exon 47509320-47509425): 0.261
- ΔPSI (ELK1 Exon 47509320-47509425): −0.209
- Effect (ELMOD3 Exon 85582678-85582839): Unc
- T-PSI (ELMOD3 Exon 85582678-85582839): 0.738
- ΔPSI (ELMOD3 Exon 85582678-85582839): −0.010
- Effect (ELMOD3 Exon 85598563-85598685): Unc
- T-PSI (ELMOD3 Exon 85598563-85598685): 0.679
- ΔPSI (ELMOD3 Exon 85598563-85598685): −0.009
- Effect (ELN Exon 73471970-73472026): Exc
- T-PSI (ELN Exon 73471970-73472026): 0.531
- ΔPSI (ELN Exon 73471970-73472026): −0.151
- Effect (ELN Exon 73474470-73474514): Exc
- T-PSI (ELN Exon 73474470-73474514): 0.821
- ΔPSI (ELN Exon 73474470-73474514): −0.167
- Effect (ELOVL1 Exon 43830857-43831047): Exc
- T-PSI (ELOVL1 Exon 43830857-43831047): 0.841
- ΔPSI (ELOVL1 Exon 43830857-43831047): −0.113
- Effect (EMC4 Exon 34520630-34520790): Unc
- T-PSI (EMC4 Exon 34520630-34520790): 0.806
- ΔPSI (EMC4 Exon 34520630-34520790): −0.001
- Effect (EMC4 Exon 34520638-34520790): Unc
- T-PSI (EMC4 Exon 34520638-34520790): 0.655
- ΔPSI (EMC4 Exon 34520638-34520790): −0.002
- Effect (ENC1 Exon 73933319-73933443): Unc
- T-PSI (ENC1 Exon 73933319-73933443): 0.128
- ΔPSI (ENC1 Exon 73933319-73933443): −0.006
- Effect (ENC1 Exon 73933390-73933526): Inc
- T-PSI (ENC1 Exon 73933390-73933526): 0.356
- ΔPSI (ENC1 Exon 73933390-73933526): 0.248
- Effect (ENOSF1 Exon 678696-678737): Exc
- T-PSI (ENOSF1 Exon 678696-678737): 0.804
- ΔPSI (ENOSF1 Exon 678696-678737): −0.138
- Effect (EP400 Exon 132448077-132448187): Unc
- T-PSI (EP400 Exon 132448077-132448187): 0.214
- ΔPSI (EP400 Exon 132448077-132448187): −0.006
- Effect [3]: Exc
- T-PSI [3]: 0.759
- ΔPSI [3]: −0.119
- Effect [4]: Exc
- T-PSI [4]: 0.839
- ΔPSI [4]: −0.101
- Effect [5]: Inc
- T-PSI [5]: 0.713
- ΔPSI [5]: 0.411
- Effect (EPS15L1 Exon 16487933-16488065): Unc
- T-PSI (EPS15L1 Exon 16487933-16488065): 0.852
- ΔPSI (EPS15L1 Exon 16487933-16488065): −0.006
- Effect (ERBB2IP Exon 65370852-65371058): Exc
- T-PSI (ERBB2IP Exon 65370852-65371058): 0.245
- ΔPSI (ERBB2IP Exon 65370852-65371058): −0.190
- Effect (ERLEC1 Exon 54035436-54035597): Exc
- T-PSI (ERLEC1 Exon 54035436-54035597): 0.745
- ΔPSI (ERLEC1 Exon 54035436-54035597): −0.112
- Effect (ERMAP Exon 43305704-43305724): Exc
- T-PSI (ERMAP Exon 43305704-43305724): 0.830
- ΔPSI (ERMAP Exon 43305704-43305724): −0.151
- Effect [6]: Unc
- T-PSI [6]: 0.108
- ΔPSI [6]: 0.005
- Effect [7]: Unc
- T-PSI [7]: 0.108
- ΔPSI [7]: 0.005
- Effect (ETHE1 Exon 44030353-44030501): Exc
- T-PSI (ETHE1 Exon 44030353-44030501): 0.637
- ΔPSI (ETHE1 Exon 44030353-44030501): −0.216
- Effect (ETHE1 Exon 44030667-44030811): Exc
- T-PSI (ETHE1 Exon 44030667-44030811): 0.882
- ΔPSI (ETHE1 Exon 44030667-44030811): −0.108
- Effect (EVA1A Exon 75753238-75753325): Unc
- T-PSI (EVA1A Exon 75753238-75753325): 0.533
- ΔPSI (EVA1A Exon 75753238-75753325): −0.005
- Effect (EVC Exon 5819938-5819981): Exc
- T-PSI (EVC Exon 5819938-5819981): 0.376
- ΔPSI (EVC Exon 5819938-5819981): −0.496
- Effect (EVI5L Exon 7921978-7922010): Exc
- T-PSI (EVI5L Exon 7921978-7922010): 0.479
- ΔPSI (EVI5L Exon 7921978-7922010): −0.197
- Effect [8]: Unc
- T-PSI [8]: 0.874
- ΔPSI [8]: 0.000
- Effect [9]: Unc
- T-PSI [9]: 0.861
- ΔPSI [9]: 0.001
- Effect (FAM21C Exon 46272721-46272873): Inc
- T-PSI (FAM21C Exon 46272721-46272873): 0.663
- ΔPSI (FAM21C Exon 46272721-46272873): 0.243
- Effect (FAM35A Exon 88935646-88935852): Unc
- T-PSI (FAM35A Exon 88935646-88935852): 0.743
- ΔPSI (FAM35A Exon 88935646-88935852): 0.006
- Effect [10]: Unc
- T-PSI [10]: 0.664
- ΔPSI [10]: 0.009
- Effect (FAM104A Exon 71208817-71208879): Exc
- T-PSI (FAM104A Exon 71208817-71208879): 0.197
- ΔPSI (FAM104A Exon 71208817-71208879): −0.113
